Source: paper PMC12590467, “Accessory Subunit Regulates Thiyl Radical Formation in Benzylsuccinate Synthase” (Biochemistry, 2025)
These are yes or no findings as the source states them, for the method shown. Some entries that bind do so weakly or less than the wild type.

T1: Benzylsuccinate synthase α subunit (BSSα) (UniProt O68395)
T1 sequence: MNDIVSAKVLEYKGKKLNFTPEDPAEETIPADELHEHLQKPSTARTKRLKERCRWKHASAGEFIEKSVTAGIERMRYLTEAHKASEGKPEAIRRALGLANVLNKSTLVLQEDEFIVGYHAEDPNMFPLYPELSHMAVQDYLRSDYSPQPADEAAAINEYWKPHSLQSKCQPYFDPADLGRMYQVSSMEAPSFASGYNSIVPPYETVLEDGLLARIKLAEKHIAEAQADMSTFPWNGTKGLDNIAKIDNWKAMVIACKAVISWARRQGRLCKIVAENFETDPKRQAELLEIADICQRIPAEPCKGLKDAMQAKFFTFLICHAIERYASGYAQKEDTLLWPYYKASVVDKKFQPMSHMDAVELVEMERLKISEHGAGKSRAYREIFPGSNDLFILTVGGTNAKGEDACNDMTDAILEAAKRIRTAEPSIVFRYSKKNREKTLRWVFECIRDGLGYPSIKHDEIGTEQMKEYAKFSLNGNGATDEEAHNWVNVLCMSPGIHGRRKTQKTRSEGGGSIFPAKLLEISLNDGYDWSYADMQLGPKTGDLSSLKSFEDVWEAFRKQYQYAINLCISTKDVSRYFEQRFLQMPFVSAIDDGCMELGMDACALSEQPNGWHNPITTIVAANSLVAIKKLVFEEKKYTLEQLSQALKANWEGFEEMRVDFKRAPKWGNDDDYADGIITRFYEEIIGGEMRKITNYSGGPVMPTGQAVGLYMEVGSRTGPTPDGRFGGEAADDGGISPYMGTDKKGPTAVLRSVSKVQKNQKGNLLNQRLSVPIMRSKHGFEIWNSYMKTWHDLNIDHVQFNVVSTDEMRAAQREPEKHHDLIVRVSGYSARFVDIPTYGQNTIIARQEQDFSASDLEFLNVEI

B1: Benzylsuccinate synthase β subunit (BSSβ) (protein, UniProt O68396 1-81)
chain: MEGSNMETGQNLQNQPHTEVGTARPCRSCKWQTPDPTDPHRGQCTANRHAMGGVWKRWLRDVENTTCSRHEEGKLSFRDHV
B2: Benzylsuccinate synthase γ subunit (BSSγ) (protein, UniProt O68394 1-60)
chain: MGTTTCKQCANFFPVPKDADDYEAGKADCVREKEDEKGKYWLSKPIFENSAQCEAFQTKR
B3: Benzylsuccinate synthase α subunit (BSSα) (enzyme, UniProt O68395 1-864)
chain: MNDIVSAKVLEYKGKKLNFTPEDPAEETIPADELHEHLQKPSTARTKRLKERCRWKHASAGEFIEKSVTAGIERMRYLTEAHKASEGKPEAIRRALGLANVLNKSTLVLQEDEFIVGYHAEDPNMFPLYPELSHMAVQDYLRSDYSPQPADEAAAINEYWKPHSLQSKCQPYFDPADLGRMYQVSSMEAPSFASGYNSIVPPYETVLEDGLLARIKLAEKHIAEAQADMSTFPWNGTKGLDNIAKIDNWKAMVIACKAVISWARRQGRLCKIVAENFETDPKRQAELLEIADICQRIPAEPCKGLKDAMQAKFFTFLICHAIERYASGYAQKEDTLLWPYYKASVVDKKFQPMSHMDAVELVEMERLKISEHGAGKSRAYREIFPGSNDLFILTVGGTNAKGEDACNDMTDAILEAAKRIRTAEPSIVFRYSKKNREKTLRWVFECIRDGLGYPSIKHDEIGTEQMKEYAKFSLNGNGATDEEAHNWVNVLCMSPGIHGRRKTQKTRSEGGGSIFPAKLLEISLNDGYDWSYADMQLGPKTGDLSSLKSFEDVWEAFRKQYQYAINLCISTKDVSRYFEQRFLQMPFVSAIDDGCMELGMDACALSEQPNGWHNPITTIVAANSLVAIKKLVFEEKKYTLEQLSQALKANWEGFEEMRVDFKRAPKWGNDDDYADGIITRFYEEIIGGEMRKITNYSGGPVMPTGQAVGLYMEVGSRTGPTPDGRFGGEAADDGGISPYMGTDKKGPTAVLRSVSKVQKNQKGNLLNQRLSVPIMRSKHGFEIWNSYMKTWHDLNIDHVQFNVVSTDEMRAAQREPEKHHDLIVRVSGYSARFVDIPTYGQNTIIARQEQDFSASDLEFLNVEI

Tests used:
[1] = substrate: T2, BSSαγ (benzylsuccinate synthase catalytic α subunit with accessory γ subunit) (UniProt O68395); experiment: crystal structure; purified BSSαγ and purified BSSβ (50 mM HEPES pH 8.0, 300 mM NaCl) mixed in a 1:2 molar ratio, 20 mg/mL; sitting-drop vapor diffusion, anaerobic; 29% PEG 3350, 60 mM KCl, 100 mM Tris pH 8.5, 5 mM fumarate; both purified
T2 sequence 1: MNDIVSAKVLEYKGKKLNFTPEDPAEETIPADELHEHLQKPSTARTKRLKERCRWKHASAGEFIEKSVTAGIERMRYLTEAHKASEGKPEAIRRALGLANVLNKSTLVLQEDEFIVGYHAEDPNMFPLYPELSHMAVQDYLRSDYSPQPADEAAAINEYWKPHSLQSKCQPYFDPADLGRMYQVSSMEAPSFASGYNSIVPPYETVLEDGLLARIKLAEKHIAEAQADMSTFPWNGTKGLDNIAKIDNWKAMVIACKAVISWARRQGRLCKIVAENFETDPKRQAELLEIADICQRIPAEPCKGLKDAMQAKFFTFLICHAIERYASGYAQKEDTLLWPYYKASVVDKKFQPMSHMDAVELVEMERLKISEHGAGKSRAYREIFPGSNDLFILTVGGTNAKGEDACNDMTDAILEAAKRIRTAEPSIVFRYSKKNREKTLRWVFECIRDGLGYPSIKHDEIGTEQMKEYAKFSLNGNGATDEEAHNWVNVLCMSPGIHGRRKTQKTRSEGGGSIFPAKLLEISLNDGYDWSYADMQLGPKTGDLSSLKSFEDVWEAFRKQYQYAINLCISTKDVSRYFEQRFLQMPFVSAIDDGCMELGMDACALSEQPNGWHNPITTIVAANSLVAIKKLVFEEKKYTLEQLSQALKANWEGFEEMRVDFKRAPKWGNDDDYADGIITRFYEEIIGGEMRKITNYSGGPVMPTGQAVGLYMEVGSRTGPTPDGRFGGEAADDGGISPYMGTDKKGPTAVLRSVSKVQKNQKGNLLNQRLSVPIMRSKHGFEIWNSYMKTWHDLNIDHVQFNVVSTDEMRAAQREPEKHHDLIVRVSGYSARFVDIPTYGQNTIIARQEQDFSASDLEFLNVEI
T2 sequence 2: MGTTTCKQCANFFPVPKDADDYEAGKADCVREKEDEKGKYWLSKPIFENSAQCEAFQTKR

[2] = biological target: T1, Benzylsuccinate synthase α subunit (BSSα); experiment: as above

| Binder | binding [1] | binding [2] |
| --- | --- | --- |
| B1 | binds | binds |
| B2 | – | binds |
| B3 | – | binds |
